# In US20240226074A1, “CELL-OF-ORIGIN TARGETED DRUG REPURPOSING FOR TRIPLE-NEGATIVE AND INFLAMMATORY BREAST CARCINOMA WITH HDAC AND HSP90 INHIBITORS COMBINED WITH NICLOSAMIDE” (priority 2022, published 2024):
# Test: Peak serum concentrations achieved in clinical trials
# Settings: human, in vivo
row,SMILES,Ratio (Phase I-II Cmax / experimental three-drug concentration)
1,O=C(CCCCCCC(=O)Nc1ccccc1)NO [Vorinostat],40
2,O=C(/C=C/c1cccc(S(=O)(=O)Nc2ccccc2)c1)NO [Belinostat],200
3,O=C(Nc1ccc([N+](=O)[O-])cc1Cl)c1cc(Cl)ccc1O [Niclosamide],20
4,CCc1cc(C(N)=O)ccc1-n1nc(C(C)C)c2c(-n3cnc(-c4cnn(C)c4)c3)ccnc21 [Pimitespib],11-35
